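Luminescence from an EWS-FLI1 target-promoter (NR0B1) reporter, set against a CMV-promoter reporter, two days after silencing single genes in TC32 Ewing sarcoma cells. Each siRNA was applied at 20 nM. A z-score of the log NR0B1-over-CMV signal, less the median of siRNAs with the same seed; more negative means a stronger specific loss of the NR0B1 reporter.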

The strongest results of the screen are mostly left out here. Sequences are the guide (antisense) strand, without overhang.

UUCGCAACAACCAAAUUGA against UGT1A10 read seed-corrected z-score 0.07523. For AUGGUGGUGAGUUGACUCC against SLC17A4 the result was seed-corrected z-score -1.749. For UUUUAUCGAAUUAUUCACC against PARPBP the result was seed-corrected z-score 0.296. UAGAUAUCCAACAGAGGGC against AZIN1 gave seed-corrected z-score 0.6214. UUACUGAUCUCCGCUGAGG against ARHGAP31 gave seed-corrected z-score 0.8254.

UACUGGAUGGGUGAACUGC against THY1 read seed-corrected z-score -1.16. For UAAAGAUUCCAGCAUCUUU against DEFB123 the result was seed-corrected z-score 0.2651. Result for UCAGCUACCACGGACGAGA against E4F1 was seed-corrected z-score 0.4243. UGGAUAAUGUGGUUGAUCC against MUC22 gave seed-corrected z-score 0.179. UCUGGGUUCCACAUCGUCA against PRAM1 read seed-corrected z-score 1.452.

With UAAUUUAGCAUGCAUACGU against MNX1 the assay gave seed-corrected z-score 0.2176. UGGGAUUCCGGUUCCUUGC against C9orf152 read seed-corrected z-score -0.4969. For UCGCGAUGAACUUCUUGGG against MFSD12 the result was seed-corrected z-score -0.05044. UGGGUUUCUUGUAUAGUUC against AIDA read seed-corrected z-score -0.117. UCUCUCGUAUGAUUUGUGG against LINC01124 gave seed-corrected z-score -0.06682.

UGGGAAUCUAUCAAACUUC against MAST4 read seed-corrected z-score -0.02999. For UUUGGUUGAUUGAUGCUUC against SNAPC5 the result was seed-corrected z-score -0.5. For AGACAUAAGACCAGUAUCC against ZBTB10 the result was seed-corrected z-score 0.03216. Result for AACAUUGCUAGUAAGGACC against ELF1 was seed-corrected z-score 0.7027. For UUAGCUUCUUCCGCAUCGC against NCOR2 the result was seed-corrected z-score -0.02785.

For UCUCCAAUCACAAUCUCUC against BHMT the result was seed-corrected z-score -0.0189. Result for UAUUUAAGUAUUGCUCCAG against B3GALT5-AS1 was seed-corrected z-score 0.05438. UUUCGAUAACGAGUGUUUC against ATP13A2 read seed-corrected z-score -0.06346. With UUUGGUGACAAAGUGUAUC against FLT3LG the assay gave seed-corrected z-score -0.4758. For UCAGGAUUAAAUUCUUCCU against CYP26A1 the result was seed-corrected z-score 0.9343.

With UCCGUUUUCACUCAGGAGC against ALAD the assay gave seed-corrected z-score 0.519. UGCUGGAAACGCCAUAGCC against HNRNPA1L2 gave seed-corrected z-score -0.3677. UUUAAUAAGAGGGACAAUG against OR8D4 gave seed-corrected z-score 0.7621. UAUAGAUGUAACUCAAGCC against COG6 read seed-corrected z-score -0.02489. For UCCAGCAACACCUAGGGUG against P2RY11 the result was seed-corrected z-score 1.105.

UUUCAUACUGUGCCGCUCC against MYO1E gave seed-corrected z-score -0.5899. UAUGGACCCUUAUACUUCC against TINF2 gave seed-corrected z-score 0.9391. UUAUAGAUAGCGACCAGCU against SYN2 gave seed-corrected z-score 0.4224. With UUUAUCGUAAGAGGUGUUG against ZNF638 the assay gave seed-corrected z-score -0.1637. With AAUGGUAUCAUUUCCUUCC against TMEM170A the assay gave seed-corrected z-score 0.2851.

For UGUCCGAAAAGUUAGAUUG against CLCA2 the result was seed-corrected z-score -0.6188. Result for UAUGUCUUCAGGGCUAAGG against TRAPPC9 was seed-corrected z-score -0.4637. With AAGAAUUAAAGGUAACUGC against TMEM17 the assay gave seed-corrected z-score 0.9435.

Once more, the final 3:

| strand | target gene | seed-corrected z-score |
|---|---|---|
| `UGUCCGAAAAGUUAGAUUG` | CLCA2 | -0.6188 |
| `UAUGUCUUCAGGGCUAAGG` | TRAPPC9 | -0.4637 |
| `AAGAAUUAAAGGUAACUGC` | TMEM17 | 0.9435 |

The results are deposited in PubChem (AID1159506; NCATS, 2015).